The target in test [1] is Myc-human CHIP (human) (UniProt Q9UNE7). In words: anti-GFP co-immunoprecipitation from HeLa cells stably expressing AID-GFP and transfected with myc-CHIP, western blot anti-myc.
Test [2] shares this target. In words: anti-GFP co-immunoprecipitation from HeLa; only apparent when the proteasome was inhibited (MG132).

By UniProt entry, the sequences of proteins in these tests, tags left out. Where a name states a change or a piece, a line headed by the entry shows the natural chain unless it says otherwise.
UniProt Q9UNE7: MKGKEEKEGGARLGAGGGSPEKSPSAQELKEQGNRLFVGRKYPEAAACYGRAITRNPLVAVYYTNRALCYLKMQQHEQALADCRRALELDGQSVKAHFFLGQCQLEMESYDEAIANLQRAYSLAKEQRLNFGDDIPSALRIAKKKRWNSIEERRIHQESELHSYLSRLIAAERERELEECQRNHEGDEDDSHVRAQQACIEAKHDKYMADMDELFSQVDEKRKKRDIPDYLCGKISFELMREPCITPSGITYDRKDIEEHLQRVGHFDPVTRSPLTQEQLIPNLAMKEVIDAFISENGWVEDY
UniProt Q9GZX7: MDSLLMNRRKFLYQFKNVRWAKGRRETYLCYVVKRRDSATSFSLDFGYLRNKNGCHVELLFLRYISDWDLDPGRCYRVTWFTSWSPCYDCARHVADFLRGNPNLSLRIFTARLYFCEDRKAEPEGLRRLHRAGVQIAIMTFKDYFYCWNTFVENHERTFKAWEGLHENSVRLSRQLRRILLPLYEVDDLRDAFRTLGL

These are yes or no findings as the source states them, for the method shown. In cells and extracts the contact can be indirect. Some binding calls cover weakened binding; strength is not graded here.

As to “human AID-GFP (from UniProt Q9GZX7 1-198) (enzyme)”, the binding entry in the test with Myc-human CHIP (human) [1] and in the test with Myc-human CHIP (human) [2] was “binds” throughout.

These data come from patent US20110237560A1, “MODULATING AND/OR DETECTING ACTIVATION INDUCED DEAMINASE AND METHODS OF USE THEREOF” (priority 2010, published 2011).
